PubChem BioAssay AID504786, Drosophila RNAi Screening Center | 2011
In all, the deposit lists about 21,000 reagents; this is a random part of those with a known target gene and a result. 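Primary screen; positive scores mean lost reporter signal, so the sign may be inverted from the usual convention.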 Reagents against one gene are numbered here. Names joined by + are all predicted targets of the reagent. Not all columns of the deposit are shown. Reagent sequences are not shown.

- Screen: 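Fly genes required for HIF-dependent transcription when hypoxia is mimicked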 (primary screen)
- Cells: Drosophila S2 cells with a stable HIF luciferase reporter
- Knock-down reagent: long dsRNA against Drosophila genes, about 0.2 µg dsRNA per well of a 384-well plate
- Time to read-out: three days of knock-down, then 20 h of DFO before reading
- Challenge: desferrioxamine (DFO) at 100 µM, an iron chelator that mimics hypoxia, for 20 h
- Read-out: 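HIF reporter luminescence in cells given 100 µM DFO for 20 h, using the mouse ldh-a hypoxia-response element, scored as per-plate z-scores; higher means greater loss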
- Reading the numbers: z-score: higher = stronger loss of HIF reporter signal

| gene | dsRNA no. | z-score, replicate 1 | z-score, replicate 2 |
| --- | --- | --- | --- |
| Seipin | 1 | -0.2 | -0.5 |
| CG18304 | 1 | -0.2 | -0.2 |
| Syt7 | 1 | -0.4 | -0.7 |
| Syt7 | 2 | -0.4 | -0.5 |
| twe | 1 | -0.3 | -0.4 |
| CG1075 (retired record) | 1 | -0.3 | -0.2 |
| Lsp1gamma | 1 | 0.4 | 0.4 |
| Syx1A | 1 | 0.9 | -0.7 |
| CG32264 | 1 | 1.2 | -0.5 |
| CG32264 | 2 | 0.4 | 0.1 |
| CG32264 | 3 | -0.4 | -0.2 |
| CG32264 | 4 | -0.2 | -0.7 |
| CG32264 | 5 | 1 | -0.6 |
| GCC185 | 1 | -0.3 | -0.6 |
| CG4766 | 1 | -0.3 | -0.6 |
| Pstk + CG14210 + Tim9b | 1 | 3.1 | 2.4 |
| CG15347 | 1 | -0.2 | -0.7 |
| BicC | 1 | -0.2 | -0.7 |
| CG6484 | 1 | -0.2 | 0 |
| CG14591 | 1 | -0.3 | -0.2 |
| CG12699 | 1 | -0.4 | -0.5 |
| loco | 1 | 0.1 | 1.2 |
| loco | 2 | 0 | 0.1 |
| fax | 1 | -0.4 | 0.8 |
| snRNP-U1-C | 1 | 2.2 | 1.7 |
| inaF-C | 1 | -0.3 | -0.3 |
| Dip-C | 1 | -0.4 | -0.6 |
| CG42372 + CG30100 | 1 | 1.9 | -0.1 |
| CG34330 | 1 | 0.1 | 0.7 |
| Dlg5 | 1 | 2.8 | 2.9 |
| Gem3 | 1 | -0.2 | -0.1 |
| Lkr | 1 | 0.1 | -0.5 |
| Jon66Cii | 1 | -0.4 | 0 |
| CG13065 | 1 | -0.3 | -0.3 |

Only “z-score, replicate 1” (3 entries from above):
CG4766: -0.3
Pstk + CG14210 + Tim9b: 3.1
CG15347: -0.2
